# Results reported in the supplement of paper PMC7858590.
# ± gives the standard deviation of the averaged measurements. The full ranking holds about 3,800 compounds; the median of “cell shape (eccentricity) Z-score vs DMSO control” is about 1.1, and the lowest 2% start at about -4.7. Some of the results follow. Starred links: 1 amine or outer side, 2 acyl side, 3 side chain; linkers in the order of their positions; H or OH if unused. Positions of bridges follow the written chain, without caps; N, C: chain ends. Non-standard residues stand in square brackets, D forms with d. Residues, ends and D or L forms follow the SMILES beside them. Chains are numbered I, II in the order given. Actinocin(9to1) = Cc1c2oc3c(C)ccc(C(=O)[*:1])c3nc-2c(C(=O)[*:2])c(N)c1=O; NMeV = CN[C@H](C(=O)O)C(C)C; Iva = CC[C](C)(N)C(=O)O; Sar = CNCC(=O)O
# Tested on: human monocyte-derived macrophages (M0)
# Test: cell shape (eccentricity) Z-score vs DMSO control; higher = more elongated, M2-like morphology
# Conditions: 20 µM; 24 h; macrophage state: M0 (M-CSF)
# Procedure: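 Primary human monocyte-derived macrophages (M-CSF differentiated, pooled from 4 donors, 5000 cells/well in 384-well plates) were treated with each compound at 20 uM for 24 h, then fixed and stained with phalloidin/DAPI and imaged on an Opera Phenix (6 fields, about 1000 cells/well). Cell eccentricity was measured with CellProfiler, and a Z-score (t-test) was computed against 4 DMSO control wells in the same row. Negative values mean round (M1-like) cells and positive values mean elongated (M2-like) cells; the paper's hit cutoffs are Z <= -4 (M1) and Z >= 6 (M2). Scale: negative = round, M1-like.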
row,SMILES,cell shape (Z-score)
1,CC1(C)CC[C@@]2(C(=O)O[C@@H]3O[C@H](CO)[C@@H](O)[C@H](O)[C@H]3O)C(C1)C1=CCC3[C@@]4(C)CC[C@@H](O[C@@H]5O[C@H](C(=O)O)[C@@H](O[C@@H]6OC[C@@H](O)[C@H](O)[C@H]6O)[C@H](O)[C@H]5O)C(C)(C)C4CC[C@@]3(C)[C@]1(C)C[C@H]2O (some centres not stated),1.81
2,COC(=O)C1=COC(OC2OC(CO)C(O)C(O)C2O)C2C1C=CC2(O)CO (configuration not stated),0.394
3,CC1OC(O[C@H]2CC[C@@]3(C)C(CC[C@]4(C)C3CC=C3[C@@H]5CC(C)(C)C[C@@H](O)[C@]5(C)CC[C@]34C)[C@@]2(C)CO)C(OC2OC(C(=O)O)C(O)C(O)C2OC2OCC(O)C(O)C2O)C(O)C1O (some centres not stated),2.43
4,Cc1c(O)cc2c(c1O)C(=O)CC(c1ccccc1)O2 (configuration not stated),0.559
5,CCC1=C(C)CN(C(=O)NCCc2ccc(S(=O)(=O)NC(=O)NC3CCC(C)CC3)cc2)C1=O (configuration not stated),4.63
6,CN1CCN(CC(=O)N2c3ccccc3C(=O)Nc3cccnc32)CC1,2.02
7,C=C(C)C1Cc2cc(C(C)=O)ccc2O1 (configuration not stated),2.02 ± 0.97
8,COc1ccc(/C=C/C(=O)O[C@H]2[C@@H]3C=CO[C@@H](O[C@@H]4O[C@H](CO)[C@@H](O)[C@H](O)[C@H]4O)[C@@H]3[C@@]3(CO)O[C@@H]23)cc1O,1.15
9,C[C@@H]1CN([C@H](C)CO)C(=O)c2cccc(NC(=O)c3ccncc3)c2O[C@H]1CN(C)Cc1ccc2c(c1)OCO2,0.76
10,CCCc1c(C(=O)O)cc2c(c1O)C(=O)c1c(O)cccc1C2=O,1.56
11,CC1=C(/C=C/C(C)=C/C=C/C(C)=C/CO)C(C)(C)CCC1,0.442
12,O=C(O)c1ccc2c3c1cccc3c(=O)n1c3ccccc3nc21,1.59
13,O=c1c(O[C@@H]2OC[C@H](O)[C@H](O)[C@H]2O)c(-c2ccc(O)c(O)c2)oc2cc(O)cc(O)c12,1.8
14,Oc1ccc(Nc2nc(-c3ccc(Cl)cc3)cs2)cc1,0.945
15,Oc1cccc2[nH]ccc12,1.88
16,c1nc(CC2CCNCC2)c[nH]1,2.69
17,O=CNCCc1c[nH]c2ccccc12,1.21
18,O=C(Nc1ccccc1)N1CCC(Cc2cnc3ccccc3c2)CC1,1.19
19,C=C1C(=O)O[C@@H]2C=C(C)[C@@H]3CC[C@@](C)(O)[C@@H]3C[C@H]12,-2.609 ± 0.01
20,NC(=O)N1c2ccccc2C=Cc2ccccc21,3.81
21,CCN(CC)CCOC(=O)c1ccc(N)cc1,0.0479
22,COc1cc(N)c(Cl)cc1C(=O)N[C@@H]1CCNCC1OC (some centres not stated),0.342
23,COC(=O)C1=C(C)NC(C)=C(C(=O)OCCN(C)Cc2ccccc2)C1c1cccc([N+](=O)[O-])c1 (configuration not stated),1.21
24,C=CC(C)(O)CCC1(C)C2=C(C(OC(C)=O)C(OC(C)=O)C1C)C(C)(C)CCC2 (configuration not stated),2.73

row,SMILES,cell shape (Z-score)
1,CCCC[C@@H](O)c1cc(OC)cc(=O)o1,-0.886 ± 4.1
2,Nc1nnc(-c2cccc(Cl)c2Cl)c(N)n1,-1.25
3,C/C(=C/CCC(CO)C1CCC2(C)C3CCC4C(C)(C)C(OC5OC(CO)C(O)C(O)C5O)CCC45CC35CCC12C)COC1OC(COC2OC(CO)C(O)C(O)C2O)C(O)C(O)C1O (configuration not stated),-1.37
4,C[C@@H]1CC[C@]2(C(=O)O)CC[C@]3(C)C(=CCC4[C@@]5(C)CC[C@@H](O)[C@](C)(C(=O)O)C5CC[C@]43C)C2[C@H]1C (some centres not stated),0.305 ± 2.9
5,CC1(C)CC[C@]2(C(=O)O[C@@H]3O[C@H](CO)[C@@H](O)[C@H](O)[C@H]3O)CC[C@]3(C)C(=CCC4[C@@]5(C)CC[C@H](O[C@@H]6O[C@H](C(=O)O)[C@@H](O)[C@H](O)[C@H]6O)[C@@](C)(CO)C5CC[C@]43C)C2C1 (some centres not stated),0.209
6,C[C@H]1O[C@@H](O[C@H]2[C@@H](O)C[C@H](O[C@H]3[C@@H](O)C[C@H](O[C@H]4CC[C@]5(C)C6CC[C@]7(C)[C@@H](C8=CC(=O)OC8)CC[C@]7(O)C6CC[C@@H]5C4)O[C@@H]3C)O[C@@H]2C)C[C@H](O)[C@@H]1O (some centres not stated),-0.685
7,COc1ccc2c(c1)c(CC(=O)N1CCOCC1)c(C)n2C(=O)c1ccc(Cl)cc1,3.89
8,CCOC(=O)NC(=O)/C(C#N)=C/c1ccc(Cl)c(Cl)c1,1.37
9,COc1cc2oc(-c3ccccc3)cc(=O)c2c(O)c1OC,3.73
10,CCN(CC)CCOC(=O)C(c1ccccc1)C1CCCCC1 (configuration not stated),1.15
11,C[C@@H]1O[C@@H](O[C@@H]2[C@@H](O)[C@H](O[C@@H]3[C@@H](O)[C@@H](O)[C@H](O[C@H]4[C@H](OC(=O)[C@]56CCC(C)(C)C[C@H]5C5=CCC7[C@@]8(C)C[C@H](O)[C@H](O[C@@H]9O[C@H](C(=O)O)[C@@H](O)[C@H](O)[C@H]9O)[C@@](C)(CO)C8[C@H](O)C[C@@]7(C)[C@]5(C)C[C@H]6O)O[C@@H](CO)[C@@H]4O)O[C@H]3C)OC[C@H]2O)[C@H](O)[C@H](O)[C@H]1O (some centres not stated),-6.05
12,CC(=O)O[C@]1(C(C)=O)CCC2C3C=C(Cl)C4=CC(=O)[C@@H]5C[C@@H]5[C@]4(C)C3CC[C@@]21C (some centres not stated),3.9
13,C[C@]12C=CC(=O)C=C1CC[C@@H]1[C@@H]2C(=O)C[C@@]2(C)[C@H]1CC[C@]2(O)C(=O)CO,3.21
14,COc1ccc(-c2ccc3c(N4CCOC[C@@H]4C)nc(N4CCOC[C@@H]4C)nc3n2)cc1CO,0.746
15,"Cc1c2oc3c(C)ccc(C(=O)N[C@@H]4C(=O)N[C@H](C(C)C)C(=O)N5CCC[C@H]5C(=O)N(C)CC(=O)N(C)[C@@H](C(C)C)C(=O)O[C@@H]4C)c3nc-2c(C(=O)N[C@@H]2C(=O)N[C@H](C(C)C)C(=O)N3CCC[C@H]3C(=O)N(C)CC(=O)N(C)[C@@H](C(C)C)C(=O)O[C@@H]2C)c(N)c1=O (I: T[dV]P[Sar][NMeV] / II: T[dV]P[Sar][NMeV]; ester I:1-I:C, II:1-II:C; linker I:N-II:N via Actinocin(9to1))",3.73
16,C[C@@H]1CC[C@]2(C)[C@H](CC[C@@H](O)[C@]2(C)O)[C@@]1(C)CC(=O)c1ccoc1,1.62
17,CC12CCC3C(=CCc4cc(O)ccc43)C1CCC2=O (configuration not stated),0.553
18,C=CC(=O)Nc1cc2c(Nc3ccc(F)c(Cl)c3)ncnc2cc1OCCCN1CCOCC1,2.89
19,CC(C)c1ccccc1S(=O)(=O)c1cc(N)c2ncccc2c1[N+](=O)[O-],2.36
20,c1ccc2[nH]c(CCn3c4ccccc4c4ccccc43)nc2c1,-1.17
21,CN1CCN(C2=Cc3ccccc3Oc3ccc(Cl)cc32)CC1,3.35
22,CCCn1c(=O)c2nc(-c3ccccc3)[nH]c2n(CCC)c1=O,-1.83
23,CCCCCCC(=O)OC1CC(C)(C)NC(C)(C)C1,0.31
24,C[C@]12CCC3c4ccc(OC(=O)c5ccccc5)cc4CCC3C1CCC2O (some centres not stated),1.95

# Compounds above containing a nitro group on carbon:
row,SMILES,cell shape (Z-score)
23,COC(=O)C1=C(C)NC(C)=C(C(=O)OCCN(C)Cc2ccccc2)C1c1cccc([N+](=O)[O-])c1 (configuration not stated),1.21
19,CC(C)c1ccccc1S(=O)(=O)c1cc(N)c2ncccc2c1[N+](=O)[O-],2.36

# Continuation.

row,SMILES,cell shape (Z-score)
1,CCC(C)(NC(C)=O)C(=O)NC(Cc1c[nH]c2ccccc12)C(=O)NC(CCC(N)=O)C(=O)O (stereo not drawn) (Ac-[Iva]-Trp-Gln-OH; configuration not given here),8.21
2,Cc1cc(C)cc(OCC2CNC(=O)O2)c1 (configuration not stated),2.35
3,N#CC(=Cc1ccc(O)c(O)c1)C(=O)NCCCCc1ccccc1,-2.6
4,O=C(O)CCc1cc2ccoc2cc1O[C@@H]1O[C@H](CO)[C@@H](O)[C@H](O)[C@H]1O,-0.37
5,COC(=O)C1=COC(O[C@@H]2O[C@H](CO)[C@@H](O)[C@H](O)[C@H]2O)[C@@H]2[C@@](C)(O)[C@@H](OC(=O)/C=C\c3ccccc3)C[C@]12O (some centres not stated),2.07
6,CC1(C)CC[C@]2(C(=O)O[C@@H]3O[C@H](CO)[C@@H](O)[C@H](O)[C@H]3O)CC[C@]3(C)C(=CCC4[C@@]5(C)C[C@@H](O)[C@H](O)[C@@](C)(CO)C5CC[C@]43C)C2C1 (some centres not stated),-0.496
7,COc1ccc(/C=C/C(=O)O)cc1OC,-3.58
8,COc1cc(/C(C)=C/C(C)(O)C(C)O)oc(=O)c1C (configuration not stated),1.58
9,O=C(Nc1ccc([N+](=O)[O-])cc1Cl)c1cc(Cl)ccc1O,-4.1 ± 4.2
10,Nc1nc2c(ncn2COCCO)c(=O)[nH]1,7.44
11,Oc1ccc(/C=C/c2cc(O)cc(O)c2)cc1,-2.48
12,CCC(C)[C@H]1O[C@]2(CC[C@@H]1C)C[C@@H]1C[C@@H](C/C=C(\C)[C@@H](OC3C[C@H](OC)C(O[C@H]4C[C@H](OC)[C@@H](O)[C@H](C)O4)[C@H](C)O3)[C@@H](C)/C=C/C=C3\CO[C@@H]4[C@H](O)C(C)=C[C@@H](C(=O)O1)[C@]34O)O2 (some centres not stated),2.53
13,C=C1C(=O)O[C@@H]2[C@H]3C(=C)[C@@H](O[C@@H]4O[C@H](CO)[C@@H](O)[C@H](O)[C@H]4O)C[C@H]3C(=C)C[C@@H](O)[C@@H]12,2.36
14,CC1(C)CC[C@]2(C(=O)O[C@@H]3O[C@H](CO)[C@@H](O)[C@H](O)[C@H]3O)CC[C@]3(C)C(=CCC4[C@@]5(C)C[C@@H](O)[C@H](O)[C@](C)(CO)C5CC[C@]43C)C2[C@@H]1O (some centres not stated),1.6
15,COc1ccc2cc3[n+](cc2c1OC)CCc1cc2c(cc1-3)OCO2,-1.9
16,O=C(NCCN1CCC(n2c(=O)[nH]c3ccccc32)CC1)c1ccc2ccccc2c1,1.71
17,OC[C@H]1O[C@@H](n2cnc3c(N[C@H]4CCC[C@@H]4O)ncnc32)[C@H](O)[C@@H]1O,4.33
18,CC1OC(Oc2cc(O)c3c(=O)c(OC4OCC(O)C(O)C4O)c(-c4ccc(O)cc4)oc3c2)C(O)C(O)C1O (configuration not stated),2.06
19,CN1C(=O)OC(C)(C)C1=O,-0.35
20,CC(C)NC[C@H](O)COc1cccc2ccccc12,0.14
21,O=C(N[C@@H](CO)[C@H](O)c1ccc([N+](=O)[O-])cc1)C(Cl)Cl,1.51
22,Cc1cc(=O)c2c(O)c3c(cc2o1)OC(C(C)(C)OC1OC(CO)C(O)C(O)C1O)C3 (configuration not stated),0.72
23,OCCN1CCN(CCCN2c3ccccc3Sc3ccc(C(F)(F)F)cc32)CC1,0.215
24,CCN(CC)CCOc1ccc2c(c1)C(=O)c1cc(OCCN(CC)CC)ccc1-2,11.9

# A different layout for some results above.
row	SMILES	cell shape (Z-score)
17	OC[C@H]1O[C@@H](n2cnc3c(N[C@H]4CCC[C@@H]4O)ncnc32)[C@H](O)[C@@H]1O	4.33
18	CC1OC(Oc2cc(O)c3c(=O)c(OC4OCC(O)C(O)C4O)c(-c4ccc(O)cc4)oc3c2)C(O)C(O)C1O (configuration not stated)	2.06
19	CN1C(=O)OC(C)(C)C1=O	-0.35
20	CC(C)NC[C@H](O)COc1cccc2ccccc12	0.14
